± gives the standard deviation of the averaged measurements. Only a part is listed here, and it is no random draw. Small differences around the control level are noise.
The targets below were run with Nc1ncnc2c1ncn2[C@@H]1O[C@H](COP(=O)(O)OP(=O)(O)OP(=O)(O)O)[C@@H](O)[C@H]1O [adenosine triphosphate] (assay: NP40-soluble protein abundance relative to vehicle (solubility fold change) (ratio); higher = more soluble protein in presence of ATP). Settings: concentration: 0.1mM.
Summary of the method: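 Across three independent experiments, values are fold changes against the detergent-processed vehicle for each replicate, based on vsn-normalised intensities. The samples were Jurkat crude lysate treated with eight concentrations (0.1 to 10 mM) for 10 min at room temperature and then 3 min at 37 °C. Lysate was solubilised with 0.8% NP40 and benzonase, ultracentrifuged, and the supernatant analysed by TMT-labelled LC-MS/MS.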

Chains of the proteins cited; added tags and fusions are not shown. Lines headed by an entry give the natural chain unless they say otherwise; changes in a name come on top.
UniProt Q9BRD0: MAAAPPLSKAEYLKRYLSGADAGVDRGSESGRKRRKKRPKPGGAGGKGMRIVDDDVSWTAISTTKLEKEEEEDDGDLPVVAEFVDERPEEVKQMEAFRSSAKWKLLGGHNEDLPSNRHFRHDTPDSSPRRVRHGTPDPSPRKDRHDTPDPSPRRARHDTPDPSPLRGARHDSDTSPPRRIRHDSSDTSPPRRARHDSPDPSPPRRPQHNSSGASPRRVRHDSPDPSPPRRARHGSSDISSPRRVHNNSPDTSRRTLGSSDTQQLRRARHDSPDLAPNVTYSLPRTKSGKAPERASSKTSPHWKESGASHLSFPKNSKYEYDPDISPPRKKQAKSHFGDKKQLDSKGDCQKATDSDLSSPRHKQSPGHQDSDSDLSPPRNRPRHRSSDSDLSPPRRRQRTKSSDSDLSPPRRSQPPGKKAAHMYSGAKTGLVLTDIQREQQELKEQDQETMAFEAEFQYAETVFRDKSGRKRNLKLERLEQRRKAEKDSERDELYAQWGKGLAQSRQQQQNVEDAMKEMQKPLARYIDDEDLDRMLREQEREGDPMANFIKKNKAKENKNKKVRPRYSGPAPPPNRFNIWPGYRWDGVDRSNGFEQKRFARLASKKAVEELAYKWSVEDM
UniProt Q99471, whole entry: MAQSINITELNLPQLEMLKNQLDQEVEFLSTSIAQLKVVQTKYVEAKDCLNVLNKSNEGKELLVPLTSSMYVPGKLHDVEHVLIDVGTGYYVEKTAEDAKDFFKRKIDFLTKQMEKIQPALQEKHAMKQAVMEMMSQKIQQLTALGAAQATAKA
UniProt Q99598: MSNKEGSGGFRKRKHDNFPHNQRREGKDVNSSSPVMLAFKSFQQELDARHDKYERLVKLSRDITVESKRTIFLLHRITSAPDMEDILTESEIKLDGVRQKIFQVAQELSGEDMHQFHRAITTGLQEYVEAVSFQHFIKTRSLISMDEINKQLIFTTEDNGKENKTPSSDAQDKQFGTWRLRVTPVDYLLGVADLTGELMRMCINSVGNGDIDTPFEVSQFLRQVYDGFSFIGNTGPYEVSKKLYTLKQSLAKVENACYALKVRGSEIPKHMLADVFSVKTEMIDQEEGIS
UniProt Q9BSF4: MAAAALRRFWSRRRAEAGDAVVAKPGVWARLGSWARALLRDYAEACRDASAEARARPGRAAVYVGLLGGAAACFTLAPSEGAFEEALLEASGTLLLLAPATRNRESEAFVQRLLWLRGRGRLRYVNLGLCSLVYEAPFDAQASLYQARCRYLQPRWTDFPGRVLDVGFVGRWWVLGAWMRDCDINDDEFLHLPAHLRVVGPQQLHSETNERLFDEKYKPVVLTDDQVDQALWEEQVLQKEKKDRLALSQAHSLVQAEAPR
UniProt Q9BSH5: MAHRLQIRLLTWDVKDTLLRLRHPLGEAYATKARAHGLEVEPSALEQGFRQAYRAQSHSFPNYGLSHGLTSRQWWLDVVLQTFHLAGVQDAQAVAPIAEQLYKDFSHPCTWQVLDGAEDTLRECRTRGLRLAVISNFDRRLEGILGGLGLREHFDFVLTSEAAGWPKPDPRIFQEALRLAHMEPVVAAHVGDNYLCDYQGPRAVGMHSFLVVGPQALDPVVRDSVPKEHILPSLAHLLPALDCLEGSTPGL
UniProt Q9BQ04: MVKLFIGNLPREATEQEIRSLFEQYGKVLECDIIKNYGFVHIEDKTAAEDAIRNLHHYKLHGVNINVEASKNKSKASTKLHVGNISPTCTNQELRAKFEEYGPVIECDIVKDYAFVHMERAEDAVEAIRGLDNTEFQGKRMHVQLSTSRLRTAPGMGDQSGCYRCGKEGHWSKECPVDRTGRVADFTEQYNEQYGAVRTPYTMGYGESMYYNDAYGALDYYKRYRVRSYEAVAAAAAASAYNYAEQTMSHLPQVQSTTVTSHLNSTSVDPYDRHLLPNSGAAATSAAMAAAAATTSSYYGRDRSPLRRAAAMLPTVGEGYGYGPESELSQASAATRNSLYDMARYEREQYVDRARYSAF
UniProt Q99442: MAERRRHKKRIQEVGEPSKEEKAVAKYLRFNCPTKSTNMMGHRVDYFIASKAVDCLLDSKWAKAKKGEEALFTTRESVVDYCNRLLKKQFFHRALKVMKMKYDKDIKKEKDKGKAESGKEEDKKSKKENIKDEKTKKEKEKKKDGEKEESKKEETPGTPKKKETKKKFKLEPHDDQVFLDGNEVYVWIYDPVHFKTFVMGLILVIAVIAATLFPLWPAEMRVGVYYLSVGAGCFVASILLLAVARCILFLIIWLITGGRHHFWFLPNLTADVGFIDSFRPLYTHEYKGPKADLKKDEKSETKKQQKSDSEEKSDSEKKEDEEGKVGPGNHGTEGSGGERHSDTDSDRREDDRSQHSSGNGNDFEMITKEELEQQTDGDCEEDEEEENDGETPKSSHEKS
UniProt Q9BT23: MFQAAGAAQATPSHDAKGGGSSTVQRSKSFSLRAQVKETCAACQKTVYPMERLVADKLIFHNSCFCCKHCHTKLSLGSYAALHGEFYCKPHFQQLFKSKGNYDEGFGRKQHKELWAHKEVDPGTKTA
UniProt Q99497, whole entry: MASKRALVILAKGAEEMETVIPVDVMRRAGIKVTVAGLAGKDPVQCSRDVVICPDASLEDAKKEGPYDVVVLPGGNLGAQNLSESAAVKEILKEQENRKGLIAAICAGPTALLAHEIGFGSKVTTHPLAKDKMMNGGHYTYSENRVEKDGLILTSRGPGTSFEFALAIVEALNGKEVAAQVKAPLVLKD
UniProt Q99615: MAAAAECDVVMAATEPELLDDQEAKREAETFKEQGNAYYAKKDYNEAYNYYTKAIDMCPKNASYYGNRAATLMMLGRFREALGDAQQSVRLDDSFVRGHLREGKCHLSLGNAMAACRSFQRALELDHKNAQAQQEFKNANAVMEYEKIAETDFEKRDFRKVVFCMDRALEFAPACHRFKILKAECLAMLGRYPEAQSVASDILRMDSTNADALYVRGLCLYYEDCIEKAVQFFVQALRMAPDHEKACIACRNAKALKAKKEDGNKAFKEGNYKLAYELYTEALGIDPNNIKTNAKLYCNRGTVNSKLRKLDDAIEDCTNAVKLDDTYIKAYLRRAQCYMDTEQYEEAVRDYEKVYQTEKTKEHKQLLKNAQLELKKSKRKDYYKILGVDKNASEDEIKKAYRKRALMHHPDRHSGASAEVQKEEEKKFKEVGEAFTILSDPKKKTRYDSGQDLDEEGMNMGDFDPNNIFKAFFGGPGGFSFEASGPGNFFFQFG
UniProt Q9BQA1, whole entry: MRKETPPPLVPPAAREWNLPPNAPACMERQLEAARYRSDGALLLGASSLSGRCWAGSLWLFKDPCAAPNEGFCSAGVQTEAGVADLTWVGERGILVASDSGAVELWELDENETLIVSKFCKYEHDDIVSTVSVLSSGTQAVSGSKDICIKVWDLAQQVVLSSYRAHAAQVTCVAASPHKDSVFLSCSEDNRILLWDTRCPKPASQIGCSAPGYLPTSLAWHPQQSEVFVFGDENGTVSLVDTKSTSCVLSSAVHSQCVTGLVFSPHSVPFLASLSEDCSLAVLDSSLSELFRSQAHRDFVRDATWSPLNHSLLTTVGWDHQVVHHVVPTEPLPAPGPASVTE
UniProt Q9BQG0: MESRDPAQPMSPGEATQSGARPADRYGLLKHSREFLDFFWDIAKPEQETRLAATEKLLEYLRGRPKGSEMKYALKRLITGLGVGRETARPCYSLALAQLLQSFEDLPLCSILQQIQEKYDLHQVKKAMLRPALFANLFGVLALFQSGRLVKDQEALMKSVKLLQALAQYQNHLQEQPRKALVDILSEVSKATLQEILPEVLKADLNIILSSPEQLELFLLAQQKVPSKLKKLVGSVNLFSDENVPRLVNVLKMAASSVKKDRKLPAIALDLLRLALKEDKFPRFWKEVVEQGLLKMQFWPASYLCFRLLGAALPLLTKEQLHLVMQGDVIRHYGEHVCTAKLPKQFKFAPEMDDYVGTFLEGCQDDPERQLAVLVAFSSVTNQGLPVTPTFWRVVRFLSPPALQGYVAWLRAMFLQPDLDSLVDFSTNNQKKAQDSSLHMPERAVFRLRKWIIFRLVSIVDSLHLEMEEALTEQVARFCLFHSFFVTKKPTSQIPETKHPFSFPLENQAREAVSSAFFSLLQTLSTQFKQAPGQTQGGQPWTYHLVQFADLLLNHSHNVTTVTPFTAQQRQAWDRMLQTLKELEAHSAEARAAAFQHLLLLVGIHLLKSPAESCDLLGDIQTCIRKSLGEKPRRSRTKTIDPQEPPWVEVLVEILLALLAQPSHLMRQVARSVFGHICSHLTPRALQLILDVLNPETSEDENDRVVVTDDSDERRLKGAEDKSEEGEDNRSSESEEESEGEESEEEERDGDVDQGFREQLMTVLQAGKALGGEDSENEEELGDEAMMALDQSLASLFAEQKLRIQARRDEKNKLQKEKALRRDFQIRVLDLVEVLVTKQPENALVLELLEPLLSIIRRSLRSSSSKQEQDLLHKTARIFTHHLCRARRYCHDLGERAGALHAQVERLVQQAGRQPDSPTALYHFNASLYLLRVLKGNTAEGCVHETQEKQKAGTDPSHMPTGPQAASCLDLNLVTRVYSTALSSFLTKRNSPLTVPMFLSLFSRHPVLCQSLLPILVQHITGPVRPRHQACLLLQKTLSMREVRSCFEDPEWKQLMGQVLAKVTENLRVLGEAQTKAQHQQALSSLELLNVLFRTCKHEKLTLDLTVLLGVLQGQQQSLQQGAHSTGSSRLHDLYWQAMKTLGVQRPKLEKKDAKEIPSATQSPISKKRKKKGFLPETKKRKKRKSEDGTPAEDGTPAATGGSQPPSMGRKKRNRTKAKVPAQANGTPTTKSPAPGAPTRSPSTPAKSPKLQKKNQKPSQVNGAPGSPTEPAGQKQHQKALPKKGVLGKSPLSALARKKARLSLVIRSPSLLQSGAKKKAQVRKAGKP
UniProt Q9BR61: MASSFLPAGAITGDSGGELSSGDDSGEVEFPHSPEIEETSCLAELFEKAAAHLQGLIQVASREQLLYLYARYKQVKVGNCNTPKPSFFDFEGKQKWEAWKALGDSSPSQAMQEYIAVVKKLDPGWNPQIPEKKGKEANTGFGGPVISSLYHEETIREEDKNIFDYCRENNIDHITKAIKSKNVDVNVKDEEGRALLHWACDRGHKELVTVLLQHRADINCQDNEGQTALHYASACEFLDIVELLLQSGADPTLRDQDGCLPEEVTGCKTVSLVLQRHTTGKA
UniProt Q9BU61: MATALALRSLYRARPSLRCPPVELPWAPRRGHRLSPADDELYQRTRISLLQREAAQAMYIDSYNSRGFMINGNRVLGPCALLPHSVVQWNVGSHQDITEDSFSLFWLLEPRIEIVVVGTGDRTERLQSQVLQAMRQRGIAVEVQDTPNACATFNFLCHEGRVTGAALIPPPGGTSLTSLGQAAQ
UniProt Q9BRR6: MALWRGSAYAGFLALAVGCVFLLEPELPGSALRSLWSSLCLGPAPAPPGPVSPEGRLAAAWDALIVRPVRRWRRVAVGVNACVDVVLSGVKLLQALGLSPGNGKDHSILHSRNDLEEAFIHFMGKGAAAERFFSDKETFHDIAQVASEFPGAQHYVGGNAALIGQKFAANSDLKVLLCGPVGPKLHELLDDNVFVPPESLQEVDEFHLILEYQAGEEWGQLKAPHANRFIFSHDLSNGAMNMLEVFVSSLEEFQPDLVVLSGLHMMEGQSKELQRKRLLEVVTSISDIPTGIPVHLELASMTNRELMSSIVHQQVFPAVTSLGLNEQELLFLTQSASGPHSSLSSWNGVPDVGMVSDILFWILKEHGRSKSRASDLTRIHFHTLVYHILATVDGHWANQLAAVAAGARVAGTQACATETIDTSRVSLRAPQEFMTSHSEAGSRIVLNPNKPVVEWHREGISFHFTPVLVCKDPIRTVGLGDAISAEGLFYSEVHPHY
UniProt Q9BV57: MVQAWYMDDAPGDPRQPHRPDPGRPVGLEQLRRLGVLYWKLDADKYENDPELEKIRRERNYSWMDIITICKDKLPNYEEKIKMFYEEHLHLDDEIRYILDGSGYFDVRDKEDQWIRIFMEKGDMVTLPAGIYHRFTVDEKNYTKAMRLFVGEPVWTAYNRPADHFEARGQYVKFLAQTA
UniProt Q9BZL1: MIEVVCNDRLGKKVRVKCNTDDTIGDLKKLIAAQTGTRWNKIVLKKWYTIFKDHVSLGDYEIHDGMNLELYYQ
UniProt Q9BPZ7, whole entry: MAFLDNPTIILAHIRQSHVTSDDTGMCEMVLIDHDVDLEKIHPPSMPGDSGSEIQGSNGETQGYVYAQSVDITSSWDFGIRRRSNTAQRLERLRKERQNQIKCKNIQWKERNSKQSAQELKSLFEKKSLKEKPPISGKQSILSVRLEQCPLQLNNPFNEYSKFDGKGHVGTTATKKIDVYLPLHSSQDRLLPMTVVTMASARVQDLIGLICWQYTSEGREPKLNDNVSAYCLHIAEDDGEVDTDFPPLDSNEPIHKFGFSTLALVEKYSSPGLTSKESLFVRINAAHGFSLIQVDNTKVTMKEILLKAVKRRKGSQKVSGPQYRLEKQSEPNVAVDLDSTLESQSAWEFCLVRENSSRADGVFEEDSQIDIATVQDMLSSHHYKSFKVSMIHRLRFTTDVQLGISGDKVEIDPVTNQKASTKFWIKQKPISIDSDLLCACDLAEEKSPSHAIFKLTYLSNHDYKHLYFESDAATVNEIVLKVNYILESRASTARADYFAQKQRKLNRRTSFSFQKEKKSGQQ

Target	NP40-soluble protein abundance
BUD13 (UniProt Q9BRD0)	1.01 ± 0.054
UniProt Q99471 and related entries	0.887 ± 0.14
TSNAX (UniProt Q99598)	0.9996 ± 0.0085
UniProt Q9BSF4	0.889 ± 0.049
UniProt Q99767-2	0.92 ± 0.089
HDHD3 (UniProt Q9BSH5)	1.02 ± 0.066
RBM4B (UniProt Q9BQ04)	1.03 ± 0.04
SEC62 (UniProt Q99442)	0.995 ± 0.024
COPS4 (UniProt Q9BT78)	0.961 ± 0.041
UBXN6 (UniProt Q9BZV1)	1.02 ± 0.026
LIMD2 (UniProt Q9BT23)	0.939 ± 0.016
PARK7 (UniProt Q99497)	0.986 ± 0.021
THUMPD3 (UniProt Q9BV44)	1 ± 0.076
DNAJC7 (UniProt Q99615)	0.986 ± 0.033
C16orf70 (UniProt Q9BSU1)	1.07 ± 0.078
WDR77 (UniProt Q9BQA1)	1.04 ± 0.069
UniProt Q9BXW7 and related entries	1.02 ± 0.059
KATNAL1 (UniProt Q9BW62)	0.994 ± 0.072
UniProt Q9BQG0 and related entries	0.978 ± 0.018
DIDO1 (UniProt Q9BTC0)	0.993 ± 0.025
POP1 (UniProt Q99575)	1.01 ± 0.06
ACBD6 (UniProt Q9BR61)	0.95 ± 0.035
UniProt Q9BU61	1 ± 0.059
UniProt Q9BRR6 and related entries	1.04 ± 0.18
ADI1 (UniProt Q9BV57)	0.996 ± 0.074
UniProt Q9BZL1	1.05 ± 0.071
TBCB (UniProt Q99426)	1.01 ± 0.029
SF3B5 (UniProt Q9BWJ5)	0.934 ± 0.11
UniProt Q9BPZ7 and related entries	0.956 ± 0.043

Some of the entries so far, in markdown.

| Target | NP40-soluble protein abundance |
| --- | --- |
| UniProt Q9BXW7 and related entries | 1.02 ± 0.059 |
| KATNAL1 (UniProt Q9BW62) | 0.994 ± 0.072 |

Reference: the supplement of paper PMC6411743
